Results published in patent publication US20020103136A1 (priority 1998, published 2002).
The same purity stands for every peptide and may come from a single statement.

Columns and labels:
[1] = peptide synthesis; conditions: coupling step, 214 nm, acetate salt
[2] = general procedure: peptide synthesis; Fmoc-Ser(tBu)-Wang resin; conditions: whole synthesis, 214 nm, scale 0.5 mmol, acetate salt
[3] = general procedure: peptide synthesis; Fmoc-Gln(Trt)-Wang resin; conditions: whole synthesis, 214 nm, scale 0.5 mmol, acetate salt

Row | Substance | final HPLC purity [1] | other results
1 | N-Acetyl -Ser-Chg-Gln-Ser-Ser-Pro-HCAP amine | 99% | –
2 | N-Acetyl-4-trans-L-Hyp-Ser-Ser-Chg-Gln-Ser-HCAP amine | 99% | –
3 | N-Acetyl-Ser-Chg-Gln-Ser-Ser-OH | – | final HPLC purity [2]: 99%
4 | N-Acetyl-4-trans-L-Hyp-Ser-Ser-Chg-Gln-OH | – | final HPLC purity [3]: 99%
